This is an account of results in patent US20130338214A1.

These are yes or no findings as the source states them, for the method shown. Some binding calls cover weakened binding; strength is not graded here.

The target of assay [1] is EGFR of ROR1-introduced MSTO-211H cells (UniProt P00533). Kind of assay: IP-WB, ROR1-introduced MSTO-211H cells.
Assay [2] has the same target. Nature of the assay: IP-WB, lysate of ROR1-stably expressing cells (FIG. 7c).

For “ROR1 (receptor tyrosine kinase-like orphan receptor 1), full-length, untagged (from UniProt Q01973 30-937)”, the binding result in assay [1] and in assay [2] was “binds” in each case.
